Laboratory results published in PMC4598982, “Impact of Cell-surface Antigen Expression on Target Engagement and Function of an Epidermal Growth Factor Receptor × c-MET Bispecific Antibody*” (The Journal of Biological Chemistry, 2015).
These are yes or no findings as the source states them, for the method shown. In cells and extracts the contact can be indirect.

Target: c-MET(1–960) C-terminally fused to a complementary inactive fragment of β-galactosidase (UniProt P08581)
Test: condition: only with EGF, EGFR only Abs or BsAbs and without HGF; split reporter; PathHunter enzyme fragment complementation in the c-MET homodimer U-2 OS cell line; EGF, EGFR only Abs or BsAbs in place of HGF; 6 h at room temperature

binding: no binding
B1: c-MET(1–960) C-terminally fused to a complementary inactive fragment of β-galactosidase (receptor, UniProt P08581 25-960, looked up)
chain: ECKEALAKSEMNVNMKYQLPNFTAETPIQNVILHEHHIFLGATNYIYVLNEEDLQKVAEYKTGPVLEHPDCFPCQDCSSKANLSGGVWKDNINMALVVDTYYDDQLISCGSVNRGTCQRHVFPHNHTADIQSEVHCIFSPQIEEPSQCPDCVVSALGAKVLSSVKDRFINFFVGNTINSSYFPDHPLHSISVRRLKETKDGFMFLTDQSYIDVLPEFRDSYPIKYVHAFESNNFIYFLTVQRETLDAQTFHTRIIRFCSINSGLHSYMEMPLECILTEKRKKRSTKKEVFNILQAAYVSKPGAQLARQIGASLNDDILFGVFAQSKPDSAEPMDRSAMCAFPIKYVNDFFNKIVNKNNVRCLQHFYGPNHEHCFNRTLLRNSSGCEARRDEYRTEFTTALQRVDLFMGQFSEVLLTSISTFIKGDLTIANLGTSEGRFMQVVVSRSGPSTPHVNFLLDSHPVSPEVIVEHTLNQNGYTLVITGKKITKIPLNGLGCRHFQSCSQCLSAPPFVQCGWCHDKCVRSEECLSGTWTQQICLPAIYKVFPNSAPLEGGTRLTICGWDFGFRRNNKFDLKKTRVLLGNESCTLTLSESTMNTLKCTVGPAMNKHFNMSIIISNGHGTTQYSTFSYVDPVITSISPKYGPMAGGTLLTLTGNYLNSGNSRHISIGGKTCTLKSVSNSILECYTPAQTISTEFAVKLKIDLANRETSIFSYREDPIVYEIHPTKSFISGGSTITGVGKNLNSVSVPRMVINVHEAGRNFTVACQHRSNSEIICCTTPSLQQLNLQLPLKTKAFFMLDGILSKYFDLIYVHNPVFKPFEKPVMISMGNENVLEIKGNDIDPEAVKGEVLKVGNKSCENIHLHSEAVLCTVPNDLLKLNSELNIEWKQAISSTVLGKVIVQPDQNFTGLIAGVVSISTALLLLLGFFLWLKKRKQ
notes: signal peptide in the construct; membrane localisation of the construct was checked by flow cytometry; In the homodimer cell line two copies carry the two complementary β-gal fragments; also called hepatocyte growth factor receptor; HGF receptor; source: U-2 OS cells, stably transfected, on cells
